# Results taken from the supplement of paper PMC8846439.
# Where a name gives a salt, the structure may show the parent alone. The list shows a part of the results. Many values rest on one well or one pass, so single values are uncertain.
# Tested on: Trypanosoma brucei brucei bloodstream form L262P (kDNA-independent)
# Assay: viability Z-score (nuclei count per well, median-polish normalised, relative to plate distribution); higher = more viable parasites (negative = growth inhibition)
# Details: 4 days; compound concentration: 10 µM (some Prestwick/PKE rows may be 1 µM / not distinguished)
row,SMILES,viability Z-score
1,O=C(N2C=1C=CC=CC=1C(C)=CC2(C)C)C3=C/C=C(/[F])C=C3,-3.76
2,C/C(=N/N=C1\N=C(O)[C@@H](CC(=O)O)S1)C(C)C,-1.91
3,CSc1ccc([C@H]2C3=C(CCCC3=O)Nc3ccc4ccccc4c32)cc1,-3.16
4,O=C(NC=1/C=C(/[Br])C=CC=1O)C2=NOC=3CCCCCC2=3,-1.43
5,CS/C(=N/C(=O)c1c(Cl)cccc1Cl)NCCc1ccc(Cl)cc1,-1.56
6,N#C/C1=C/C=C(C=C1)N2CCN(CC2)C(=O)C=3OC=CC=3,-1.35
7,O=C(CCCOc1ccc(Cl)cc1Cl)N1CCCCC1,-3.26
8,CCC1(c2ccccc2)NC(=O)N(C)C1=O (stereo unspecified) [Mephenytoin],-1.62
9,CCOC(=O)[C@@H](Cc1cccc(C(=O)OC)c1)NC(=O)c1ccccc1,-3.84
10,O=C(N/C1=N/O/N=C1/C3=N/C=2C=CC=CC=2N3CC=4C=CC=CC=4)C=5C=CC([F])=CC=5,-1.78
11,N/C1=N/C(=CC([F])=N1)NCC=2C=CC=CC=2,-3.34
12,CC1(C)SC2C(NC(=O)Cc3ccccc3)C(=O)N2C1C(=O)O.CC1(C)SC2C(NC(=O)Cc3ccccc3)C(=O)N2C1C(=O)O.c1ccc(CNCCNCc2ccccc2)cc1 (stereo unspecified) [Benzathine benzylpenicillin],-2.83
13,N/1(C(NC(/C(=C1)/F)=O)=O)C(=O)NCCCCCC [Carmofur],-3.13
14,CCC(=O)OC(OP(=O)(CCCCc1ccccc1)CC(=O)N1C[C@H](C2CCCCC2)C[C@H]1C(=O)O)C(C)C (stereo partly specified) [Fosinopril],-1.77
15,COc1cc2c(cc1OC)[C@@]1(C)N(CC2)C(=O)OC1(C)C,-1.81
16,NC(=O)CS/C=c1\nc(N)n2ncnc12,-5.24

row,SMILES,viability Z-score
1,CCN(CC)CCCC(C)Nc1c2ccc(Cl)cc2nc2ccc(OC)cc12 (stereo unspecified) [Quinacrine dihydrochloride hydrate],-3.76
2,O=[S](=O)(N/C2=C(\O)N1N=CN=C1/N=C2/C)C=4C=C3C(C)=C(OC3=CC=4)C(=O)OCC,-5.22
3,O=C(C[S]/C3=N/N=C(/C1=C/NC=2C=CC=CC1=2)N3C)N4CCCC4,-3.1
4,COc1cccc(/C=N/NC(=O)[C@@H]2CCCN(C(=S)NN[C@H]3C[C@@H]4C=C[C@H]3C4)CC2)c1O,-6.88
5,CC(C)(C)CC(C)(C)c1ccc(OCCOCC[N+](C)(C)Cc2ccccc2)cc1 [Benzethonium chloride],-2.56
6,CCCCOc1ccc(C(=O)CCN2CCCCC2)cc1 [Dyclonine hydrochloride],-2.48
7,c1ccc2sc(N3CCOCC3)nc2c1,-3.97
8,N#CC=4OC=1/N=C(/C)NC=1C2(CCN(CC2)C/C3=C/C=CC=C3)C=4N,-3.24
9,CC[N+](CC)(CC)CCC(O)(c1ccccc1)C1CCCCC1.[Cl-] (stereo unspecified) [Tridihexethyl chloride],-7.33
10,[S]=C(NCC=C)N2CCC=1[S]C=CC=1[C@]2([H])C3=C/C=C(/[Cl])C=C3,-3.18
11,CC(C)=CCC/C(C)=C/C=N/NC(=O)c1nnn(-c2nonc2N)c1-c1cccc([N+](=O)[O-])c1,-2.58
12,C=CC[N@@+]12CC[C@]34c5ccccc5N5/C=C6\C7N(/C=C(\C53)[C@@H](C[C@@H]41)/C(=C/CO)C2)c1ccccc1[C@@]71CC[N@@+]2(CC=C)C/C(=C\CO)[C@@H]6C[C@@H]12 (stereo partly specified) [Alcuronium chloride],-4.67
13,Cc1ccc(C(=O)Nc2ccc(S(=O)(=O)[O-])c3cc(S(=O)(=O)[O-])cc(S(=O)(=O)[O-])c23)cc1NC(=O)c1cccc(NC(=O)Nc2cccc(C(=O)Nc3cc(C(=O)Nc4ccc(S(=O)(=O)[O-])c5cc(S(=O)(=O)[O-])cc(S(=O)(=O)[O-])c45)ccc3C)c2)c1.[Na+].[Na+].[Na+].[Na+].[Na+].[Na+] [Suramin·6Na],-1.48
14,O=[N+]([O-])c1cccc([C@@H]2C=C(c3ccc(Br)cc3)Nc3ncnn32)c1,-1.4
15,CS(=O)(=O)O.Cn1cc(C2=C(c3cn(CCCSC(=N)N)c4ccccc34)C(=O)NC2=O)c2ccccc21 [Ro 31-8220 mesylate],-3.6

# Sorted by molecular weight (high to low): part of the list above
row,SMILES,viability Z-score
5,CC(C)(C)CC(C)(C)c1ccc(OCCOCC[N+](C)(C)Cc2ccccc2)cc1 [Benzethonium chloride],-2.56
3,O=C(C[S]/C3=N/N=C(/C1=C/NC=2C=CC=CC1=2)N3C)N4CCCC4,-3.1
8,N#CC=4OC=1/N=C(/C)NC=1C2(CCN(CC2)C/C3=C/C=CC=C3)C=4N,-3.24
